Test system: A2780
Assay: potency toward A2780
Assay type: cell-based, human
Conditions: read-out: drug IC50 A2780

Work on `N.N.[Cl][Pt][Cl]` [cisplatin] yielded an IC50 of 0.329 µM.
